{"source": "PubChem BioAssay AID1671195 (Yale University, 2021)", "aim": "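Genes whose knockdown alters LDL uptake in liver cancer cells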 (primary screen)", "system": "human Huh7 hepatoma cells", "reagents": "siRNA pool against human genes, 18 nM", "duration": "about 2 to 2.5 days of knockdown, then 8 h LDL uptake", "treatment": "DiI-labelled LDL at 30 µg/ml for 8 h, in lipoprotein-deficient serum medium", "read-out": "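Per-cell DiI-LDL intensity by automated imaging; well means scaled to the plate median and given as a robust z-score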", "direction": "robust z-score: higher = more LDL uptake after knockdown", "rule for the call": "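a gene counts as active if at least two replicate z-scores exceed ±2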", "note": "Shown is one part, drawn at random, of about 22,000 deposited reagents. About 1,510 of them (6.9%) count as active. 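Active includes knockdowns raising or lowering LDL uptake; positive z-scores mean more uptake, negative mean less.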 A number with no mark means an inactive call."}
{"gene knocked down": "PALS2 (protein associated with LIN7 2, MAGUK p55 family member)", "robust z-score, replicate 1": -0.369, "robust z-score, replicate 2": -1.19, "robust z-score, replicate 3": -0.739}
{"gene knocked down": "ANGPT1 (angiopoietin 1)", "robust z-score, replicate 1": -1.32, "robust z-score, replicate 2": -1.31, "robust z-score, replicate 3": -0.0934}
{"gene knocked down": "ITPRIP (inositol 1,4,5-trisphosphate receptor interacting protein)", "robust z-score, replicate 1": 1.92, "robust z-score, replicate 2": 1.34, "robust z-score, replicate 3": 1.09}
{"gene knocked down": "RAB6C (RAB6C, member RAS oncogene family)", "robust z-score, replicate 1": 0.182, "robust z-score, replicate 2": 1.12, "robust z-score, replicate 3": 0.0508}
{"gene knocked down": "FANCL (FA complementation group L)", "robust z-score, replicate 1": -0.788, "robust z-score, replicate 2": 1.39, "robust z-score, replicate 3": 0.292}
{"gene knocked down": "MDGA2 (MAM domain containing glycosylphosphatidylinositol anchor 2)", "robust z-score, replicate 1": -0.0684, "robust z-score, replicate 2": -0.522, "robust z-score, replicate 3": 0.851}
{"gene knocked down": "SAMD4B (sterile alpha motif domain containing 4B)", "robust z-score, replicate 1": 1.3, "robust z-score, replicate 2": 1.1, "robust z-score, replicate 3": -0.432}
{"gene knocked down": "PPP6R3 (protein phosphatase 6 regulatory subunit 3)", "robust z-score, replicate 1": "2.42 (active)", "robust z-score, replicate 2": 1.94, "robust z-score, replicate 3": 0.797}
{"gene knocked down": "MYOCD (myocardin)", "robust z-score, replicate 1": -1.07, "robust z-score, replicate 2": -1.12, "robust z-score, replicate 3": -0.803}
{"gene knocked down": "OR10R2 (olfactory receptor family 10 subfamily R member 2)", "robust z-score, replicate 1": -0.217, "robust z-score, replicate 2": -0.643, "robust z-score, replicate 3": -0.282}
{"gene knocked down": "PDLIM2 (PDZ and LIM domain 2)", "robust z-score, replicate 1": -0.751, "robust z-score, replicate 2": -0.395, "robust z-score, replicate 3": -1.32}

The list goes on (3 carried over from the part before).
{"gene knocked down": "MYOCD (myocardin)", "robust z-score, replicate 1": -1.07, "robust z-score, replicate 2": -1.12, "robust z-score, replicate 3": -0.803}
{"gene knocked down": "OR10R2 (olfactory receptor family 10 subfamily R member 2)", "robust z-score, replicate 1": -0.217, "robust z-score, replicate 2": -0.643, "robust z-score, replicate 3": -0.282}
{"gene knocked down": "PDLIM2 (PDZ and LIM domain 2)", "robust z-score, replicate 1": -0.751, "robust z-score, replicate 2": -0.395, "robust z-score, replicate 3": -1.32}
{"gene knocked down": "LDLRAD4 (low density lipoprotein receptor class A domain containing 4)", "robust z-score, replicate 1": -0.878, "robust z-score, replicate 2": 0.24, "robust z-score, replicate 3": -0.848}
{"gene knocked down": "MED10 (mediator complex subunit 10)", "robust z-score, replicate 1": -0.124, "robust z-score, replicate 2": -0.507, "robust z-score, replicate 3": -1.19}
{"gene knocked down": "MCAT", "robust z-score, replicate 1": 0.377, "robust z-score, replicate 2": -0.154, "robust z-score, replicate 3": -0.316}
{"gene knocked down": "FAT3 (FAT atypical cadherin 3)", "robust z-score, replicate 1": -0.35, "robust z-score, replicate 2": -0.272, "robust z-score, replicate 3": 0.148}
{"gene knocked down": "CHIT1 (chitinase 1)", "robust z-score, replicate 1": -0.135, "robust z-score, replicate 2": -0.198, "robust z-score, replicate 3": 0.117}
{"gene knocked down": "ZNF18 (zinc finger protein 18)", "robust z-score, replicate 1": 0.759, "robust z-score, replicate 2": 0.455, "robust z-score, replicate 3": 0.435}
{"gene knocked down": "DHCR24 (24-dehydrocholesterol reductase)", "robust z-score, replicate 1": -0.645, "robust z-score, replicate 2": -1.33, "robust z-score, replicate 3": -1.04}
{"gene knocked down": "ADGRF2P (adhesion G protein-coupled receptor F2, pseudogene)", "robust z-score, replicate 1": -0.898, "robust z-score, replicate 2": 0.214, "robust z-score, replicate 3": -0.506}
{"gene knocked down": "HCN3", "robust z-score, replicate 1": -0.113, "robust z-score, replicate 2": -0.112, "robust z-score, replicate 3": -0.315}
{"gene knocked down": "DEGS2 (delta 4-desaturase, sphingolipid 2)", "robust z-score, replicate 1": -1.08, "robust z-score, replicate 2": -0.122, "robust z-score, replicate 3": -0.299}
{"gene knocked down": "LRCH2", "robust z-score, replicate 1": -1.07, "robust z-score, replicate 2": -1.19, "robust z-score, replicate 3": -1.21}
{"gene knocked down": "LRRN3 (leucine rich repeat neuronal 3)", "robust z-score, replicate 1": 1.09, "robust z-score, replicate 2": 2.98, "robust z-score, replicate 3": 0.751}
{"gene knocked down": "GEMIN8 (gem nuclear organelle associated protein 8)", "robust z-score, replicate 1": -1.16, "robust z-score, replicate 2": 0.281, "robust z-score, replicate 3": -0.928}
{"gene knocked down": "HOXB13 (homeobox B13)", "robust z-score, replicate 1": -0.0915, "robust z-score, replicate 2": -0.287, "robust z-score, replicate 3": -0.395}
{"gene knocked down": "LOC139116 (retired record)", "robust z-score, replicate 1": 0.468, "robust z-score, replicate 2": 0.738, "robust z-score, replicate 3": 1.56}
{"gene knocked down": "CNGB1 (cyclic nucleotide gated channel subunit beta 1)", "robust z-score, replicate 1": -0.718, "robust z-score, replicate 2": -0.598, "robust z-score, replicate 3": -0.428}
{"gene knocked down": "CMIP (c-Maf inducing protein)", "robust z-score, replicate 1": -0.418, "robust z-score, replicate 2": -0.647, "robust z-score, replicate 3": -1.04}
{"gene knocked down": "ASIC4 (acid sensing ion channel subunit family member 4)", "robust z-score, replicate 1": -0.57, "robust z-score, replicate 2": -0.849, "robust z-score, replicate 3": -0.662}
{"gene knocked down": "MRPL22 (mitochondrial ribosomal protein L22)", "robust z-score, replicate 1": 0.541, "robust z-score, replicate 2": 0.669, "robust z-score, replicate 3": 1.25}
